Experimental data from US11644466B2, “Methods for treating, preventing and predicting risk of developing breast cancer” (Dana-Farber Cancer Institute, Inc., priority 2012, dated 2023).
At least one structure is not confirmed: it was looked up by name or label, or the drawing left a doubt.

Tested on: normal human breast tissues (breast epithelial cells)
Assay: Tissue explant (tissue slice) culture of normal breast tissue with pathway inhibitors, hormones or tamoxifen: frequency of BrdU+, Ki67+ and p27+ cells
Format: cell-based
Settings: normal breast tissue explant culture with inhibitor for 8-10 days, versus control, FIG. 24

Cc1ccc(-c2cc(C(F)(F)F)nn2-c2ccc(S(N)(=O)=O)cc2)cc1 [Cox2, celecoxib]
number of cells incorporating BrdU (BrdU pulse 5 hrs): significantly (p<0.05) decreased
fraction of Ki67+ cells: decreased
